Earlier results as cited in PMC3208124 (Journal of medicinal chemistry, 2011).

Conditions: human, in vivo; cited from earlier work

In the case of `CCCNCC(O)COc1ccccc1C(=O)CCc1ccccc1` (stereo not shown) [propafenone], the “rapidly and extensively metabolized in” value is listed as 2 to 10 h.
